Some peptides are written in HELM: one residue between dots, names in brackets for other building blocks, links after the first $. One purity is given for all peptides; the source may state it once.
Assay: peptide made by a vendor (Fmoc solid-phase peptide synthesis; Rink amide MBHA resin; HATU)
Conditions: whole synthesis, UV220

PEPTIDE1{[DOTA].[APip].[dF].Q.W.A.V.G.H.[Sta].L.[am]}$$$$V2.0
final HPLC purity: > 95%

Reference: publication PMC10247930 (EJNMMI Research, 2023)
